Source: PubChem BioAssay AID504444 (National Center for Advancing Translational Sciences (NCATS), 2011)
Among all 360,000 compounds or so, about 7,500 (2.1%) were called active. This list was built around the results that the source calls inconclusive (neither active nor inactive); the mix of calls is not that of the screen. Calls follow the shape of the dose curve; as a rule, active = well fitted inhibition curve with a large enough effect; inconclusive = small, poorly fitted or top-dose-only effect, or effect the other way; inactive = flat fitted curve, though single readings scatter. Where the call is inconclusive, the potency comes from a doubtful curve fit.

Test: Nrf2 qHTS screen for inhibitors; also: nearly all actives have a fitted effect of over 60% in size
Conditions: A549 ARE-Fluc reporter, luciferase luminescence, 18-24 h; series mostly up to 46 µM
How it was run: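 Cells were seeded and rested 2 h, then exposed to compounds for 18-24 h. CellTiter-Fluor was read first as a viability measure. BugLite was added 15 min before the final luminescent read of ARE-luciferase activity in A549 cells.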
Potency is read from the fitted curve at half-maximal effect.

Row | Structure (SMILES) | Potency
1 | Cc1nc2ccccc2c2oc(C(=O)NC3CC3)cc12 | inconclusive: 16.4 µM [falling, single point]
2 | Cc1cc(-c2nn(C)c(=O)c3ccccc23)ccc1CNC(=O)NC1CCCCC1 | inconclusive: 29.1 µM [activator, single point]
3 | O=C(Cn1cc(SCc2cccc(Cl)c2)c2ccccc21)N1CCCCC1 | inactive
4 | COc1cccc(C(=O)O/N=C(\N)c2ccccn2)c1OC | inconclusive: 3.66 µM [activator, partial curve]
5 | CC(=O)c1ccc(OCc2cc(C(=O)N3CCOCC3)no2)cc1 | inconclusive: 3.66 µM [activator, single point]
6 | CCN(CC(O)CON=C1c2ccccc2-c2ccccc21)S(=O)(=O)c1ccc(Cl)cc1 (stereo not drawn) | inconclusive: 29.1 µM [falling, single point]
7 | CC(C)c1ccc(C(C)NC(=S)NC2CCCCC2)cc1 (stereo not drawn) | active: 18.4 µM
8 | O=C(Nc1cccc([N+](=O)[O-])c1)NC1CCCCCCC1 | inactive
9 | O=C(Cc1ccc(S(=O)(=O)N2CCCC2)s1)Nc1cccc([N+](=O)[O-])c1 | inconclusive: 20.6 µM [falling, partial curve]
10 | CCOC(=O)c1sc(-c2ccccn2)nc1C | inconclusive: 29.1 µM [activator, single point]
11 | CC(OC(=O)c1nn(C(C)C)c(=O)c2ccccc12)C(=O)Nc1ncc(Cl)cc1Cl (stereo not drawn) | inactive
12 | O=C(Nc1ccccn1)c1ccc(Cl)s1 | inconclusive: 1.84 µM [activator, partial curve]
13 | Fc1ccc(-c2cc(-c3nc(-c4ccc(Cl)cc4)no3)[nH]n2)cc1 | inconclusive: 29.1 µM [activator, single point]
14 | O=C(N/N=C/c1cccc(O)c1)c1cc(-c2ccccc2)nc2ccccc12 | inactive
15 | CCOc1ncccc1C(=O)N1CCN(c2cccc(C)c2C)CC1 | inconclusive: 3.66 µM [activator, full curve]
16 | CC1(C)OC(=O)C(=CNn2cnc3ccccc3c2=O)C(=O)O1 | inconclusive: 18.4 µM [activator, partial curve]
17 | O=C(Nc1nc(-c2ccccc2)cs1)NC1CCCCC1 | inconclusive: 5.8 µM [falling, partial curve]
18 | COCCN(C(=O)CSc1nnc(Nc2ccccc2F)s1)c1c(N)n(Cc2ccccc2)c(=O)[nH]c1=O | inactive
19 | Cc1nn(CC(=O)Nc2ccc3c(c2)nc2n3CCN(C3CCCCC3)C2)c(=O)c2ccccc12 | inconclusive: 25.9 µM [falling, single point]
20 | COc1ccc(C)cc1NC(=O)NCCC1=CCCCC1 | inconclusive: 10.3 µM [falling, partial curve, poor fit]
21 | COc1ccc(C=C2SC(=S)NC2=O)cc1 | inconclusive: 7.31 µM [activator, partial curve]
22 | CCOC(=O)c1c(C)[nH]c(C(=O)N(C)CC(=O)Nc2ccc(OC)cc2)c1C | inactive
23 | COc1ccc(/C=C/c2nc(C#N)c(NCc3ccc(C)cc3)o2)cc1OC | inconclusive: 29.1 µM [falling, single point]

Row | Structure (SMILES) | Potency
24 | OCC[C@H]1C[C@@H](O)[C@H](O)[C@]2(CCc3ccccc3CO2)O1 | inactive
25 | Clc1ccc(-c2nnc(SCc3nc4ccccc4s3)o2)cc1 | inconclusive: 7.31 µM [activator, partial curve, poor fit]
26 | COc1cc(NC(=O)c2cnc(NCc3ccccc3)nc2C)cc(OC)c1OC | inconclusive: 29.1 µM [activator, single point]
27 | CS(=O)(=O)CC[C@@H](C(=O)NCCc1ccccc1)N1Cc2ccccc2C1=O | inconclusive: 2.59 µM [activator, partial curve, poor fit]
28 | C=C1CCN(C(C(=O)OC)C(C)C)S(=O)(=O)c2ccc(F)cc21 (stereo not drawn) | inconclusive: 29.1 µM [falling, single point]
29 | N#C/C(=N\Nc1ccc(Cl)cc1)C(=N)N1CCCCCC1 | inconclusive: 3.66 µM [activator, partial curve, poor fit]
30 | COCCNC(=S)N(CCc1c(C)[nH]c2ccc(C)cc12)Cc1cc(OC)c(OC)c(OC)c1 | inactive
31 | Cc1c2cc(O)c(=O)cc-2oc2cc(O)c(O)cc12 | inconclusive: 18.4 µM [falling, single point]
32 | O=C(NCc1ccccc1Cl)C1CCCN1S(=O)(=O)c1ccc(F)cc1 (stereo not drawn) | inconclusive: 2.31 µM [falling, partial curve, poor fit]
33 | CN(c1nnc(NC(=O)Nc2ccccc2C(F)(F)F)s1)C1CCCCC1 | inconclusive: 29.1 µM [activator, single point]
34 | O=C(CSc1ccc(S(=O)(=O)N2CCCC2)cn1)Nc1ccc([N+](=O)[O-])cc1C(F)(F)F | inactive
35 | O=C(O)c1ccc2cc[nH]c2c1 | inactive
36 | O=C(CCCc1ccccn1)c1ccc(-c2ccccc2)cc1 | inconclusive: 14.6 µM [activator, partial curve, poor fit]
37 | CC(C)(C)OC(=O)N1CCC(c2c(C(=O)N3CCN(C(=O)c4ccco4)CC3)cnn2-c2cccc(Cl)c2)CC1 | inconclusive: 18.4 µM [falling, partial curve, poor fit]
38 | Cn1cc(Br)c(C(=O)N/N=C/c2cc3ccccc3nc2Cl)n1 | inconclusive: 29.1 µM [falling, single point]
39 | COc1ccc(CC(=O)Nc2ccc(S(=O)(=O)Nc3cc(C)on3)cc2)cc1 | inconclusive: 20.6 µM [activator, partial curve, poor fit]
40 | COc1ccc(NC(=O)CC2C(=O)N(c3ccc(OC)cc3)C(=O)N2CCN2CCN(C)CC2)cc1 (stereo not drawn) | inconclusive: 13 µM [activator, partial curve, poor fit]
41 | Cc1ccc2nc(NC(=O)C3CCCN(S(=O)(=O)c4cnc[nH]4)C3)sc2c1 (stereo not drawn) | inconclusive: 0.58 µM [activator, full curve]
42 | Cc1ccc(Cn2cnc3c(cnn3-c3ccc(F)cc3)c2=O)cc1 | inconclusive: 14.6 µM [falling, partial curve, poor fit]
43 | CC[n+]1c(C)sc2c3ccsc3ccc21 | inactive
44 | CCOc1ccc(-c2nnc(-c3ccccc3)o2)cc1 | inconclusive: 1.03 µM [activator, partial curve]
45 | Nc1cc(OC(=O)c2ccc(F)cc2)nn1S(=O)(=O)c1ccccc1 | inconclusive: 16.4 µM [falling, partial curve]
46 | COc1ccccc1OCC(=O)NC1CCCCCCC1 | inconclusive: 20.6 µM [falling, partial curve, poor fit]

Row | Structure (SMILES) | Potency
47 | COc1ccc(-c2sc3ccccc3c2C#Cc2cncn2C)cc1 | inactive
48 | CNC(=O)c1cc(NC(=O)CCn2nc(-c3ccccc3)c3ccccc3c2=O)ccc1OC | inconclusive: 14.6 µM [falling, partial curve, poor fit]
49 | O=C(NCC1CCOCC1)c1ccc2nc(Cc3cccc(Cl)c3)oc2c1 | inconclusive: 25.9 µM [activator, partial curve]
50 | COc1ccc(Nc2ncnc3c2cnn3Cc2ccc(C)cc2)cc1 | inconclusive: 29.1 µM [falling, single point]
51 | COc1ccc2cc3cc(C(=O)N(C)C4CCCCC4)oc3nc2c1 | inconclusive: 6.51 µM [activator, partial curve, poor fit]
52 | O=C(N[C@@H](Cc1ccccc1)C(=O)NCCc1c[nH]c2ccccc12)c1ccco1 | inconclusive: 0.13 µM [activator, full curve, poor fit]
53 | Cc1ccc2oc(C(=O)NCc3ncc(C)[nH]3)c(C)c2c1 | inactive
54 | COc1ccc2c(c1)-c1nc(NC(=O)c3cccc(Br)c3)sc1CC2 | inconclusive: 8.2 µM [falling, partial curve]
55 | CN(C(=O)c1cc2c(=O)n3ccccc3nc2s1)C1CCCCC1 | inconclusive: 2.91 µM [activator, full curve]
56 | COc1ccc(S(=O)(=O)N2CCN(CC(=O)c3ccc(O)c(O)c3)CC2)cc1 | inconclusive: 18.4 µM [activator, single point]
57 | Cc1ccc(-c2nc(CS(=O)CC(=O)NC3CC3)c(C)o2)cc1 (stereo not drawn) | inactive
58 | CCOC1(/N=C(\C)NS(=O)(=O)c2ccc(Cl)cc2)C(C)=CC(=O)C=C1C | inactive
59 | COc1cc(C)ccc1OCC(=O)NC1CCCCCC1 | inconclusive: 3.66 µM [activator, full curve, poor fit]
60 | CCOC(=O)c1c(C)oc2nc(C)nc(NCC3CCN(Cc4cc(C)ccc4C)CC3)c12 | inconclusive: 29.1 µM [activator, single point]
61 | COc1ccccc1N(C(=O)CCl)c1cn(C(C)=O)c2ccccc12 | active: 23.1 µM
62 | O=C(c1ccc(F)cc1)N1CCCC(C(=O)N2CCCCC2)C1 (stereo not drawn) | inconclusive: 20.6 µM [activator, single point]
63 | Cc1ccc(N2C(=O)C(CC(=O)Nc3cccc(F)c3)N(CCc3ccccc3F)C2=O)cc1 (stereo not drawn) | inconclusive: 6.51 µM [activator, full curve]
64 | O=C(Cn1cc2c(n1)CCCC2)N1CCCc2ccccc21 | inconclusive: 13 µM [falling, partial curve, poor fit]
65 | Cc1nn(-c2ccccc2)c(/N=C/c2ccccc2O)c1-c1ccccc1 | inactive
66 | CCOc1ccc(Nc2cc(=O)oc3ccccc23)cc1 | inconclusive: 29.1 µM [falling, single point]
67 | CCN(CC)CCCNC(=O)c1cc(-c2ccc(Cl)c(Cl)c2)on1 | inactive
68 | Cc1ccccc1/C=C1\CCCc2ccccc2C1=O | inconclusive: 20.6 µM [activator, partial curve]

Quoted from the listing:
For Potency, `COc1ccc(S(=O)(=O)N2CCN(CC(=O)c3ccc(O)c(O)c3)CC2)cc1` has the entry inconclusive: 18.4 µM [activator, single point]
For Potency, `COc1ccc(Nc2ncnc3c2cnn3Cc2ccc(C)cc2)cc1` has the entry inconclusive: 29.1 µM [falling, single point]
For Potency, `O=C(NCC1CCOCC1)c1ccc2nc(Cc3cccc(Cl)c3)oc2c1` has the entry inconclusive: 25.9 µM [activator, partial curve]
